Test results published in patent publication US20030083469.

Chains of the proteins cited; added tags and fusions are not shown. Lines headed by an entry give the natural chain unless they say otherwise; changes in a name come on top.
UniProt P19793: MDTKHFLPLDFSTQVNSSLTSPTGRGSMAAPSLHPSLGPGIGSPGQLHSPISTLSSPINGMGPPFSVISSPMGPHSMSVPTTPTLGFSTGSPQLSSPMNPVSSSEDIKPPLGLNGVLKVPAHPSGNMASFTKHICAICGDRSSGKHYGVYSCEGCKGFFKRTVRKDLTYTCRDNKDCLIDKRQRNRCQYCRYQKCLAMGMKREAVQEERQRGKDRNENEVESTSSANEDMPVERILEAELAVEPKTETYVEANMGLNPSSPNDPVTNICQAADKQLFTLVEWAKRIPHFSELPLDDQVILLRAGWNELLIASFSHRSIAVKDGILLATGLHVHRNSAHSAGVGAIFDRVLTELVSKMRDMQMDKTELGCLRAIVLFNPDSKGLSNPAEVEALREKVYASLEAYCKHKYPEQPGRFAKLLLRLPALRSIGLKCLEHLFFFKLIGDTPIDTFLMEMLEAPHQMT

Biological target: RXRalpha (Homo sapiens) (UniProt P19793)
Assay: activity in cells
Conditions: minimal activation with limiting RXR vector; LG69; protein in cells; only the site is given

GTCACAGGTCACAGGTCACAGGTCACAGTTCA (double strand) [CRBPII]
activity on this sequence: active
